Data reported in patent publication US20160316732A1, “CONTROL AND CHARACTERIZATION OF PSYCHOTIC STATES” (priority 2010, published 2016).
For at least one compound, name, drawing or mass did not settle the structure.

Test system: mice
Experiment: Catatonic-like behaviors elicited by PCP in mice
Type: in vivo
Conditions: nifedipine 15 mg/kg; data not shown

## COC(=O)C1=C(C)NC(C)=C(C(=O)OC)C1c1ccccc1[N+](=O)[O-] [nifedipine]
  incidence of catatonic-like behaviors, e.g. circling and rigidity, elicited by PCP: reduced the incidence of catatonic-like behaviors
